Data from patent publication US12685757B2, “Method to increase systemic blood pressure in shock” (GEORGETOWN UNIVERSITY, priority 2019, dated 2026).
At least one compound was matched to its structure with a doubt left.

Tested on: radial branch arteries
Test: Intravital imaging of radial branch arteries
Assay type: in vivo, mice
Conditions: topical; U73122, GF 109203X, chelerythrine chloride, RHC80267 10 μM; OAG 50 μM
Method: Intravital imaging: Intravital imaging was performed in radial artery branches (~20 and 60 μm in diameter, artery #18 in FIG. 2F). Animals were anesthetized with urethane (1.2 g/kg/IP). The forelimb was shaved and an incision was made. The skin and underlying muscle tissue were reflected to expose the brachial-radial artery junction. Both in WT and TRPV1-null mice, the arteries were visualized with a Zeiss stereomicroscope and illuminated with a low power blue light (using a standard GFP filter cube) exploiting the differential auto-fluorescence between tissue and blood. In TRPV1-Cre:ChR2/tdTomato mice, arteries were visualized with low power visible irradiation and stimulated with blue light. The exposed arteries were locally perfused (using a 250 μm pencil connected to a valve-controlled gravity-fed perfusion system) with preheated PSS solutions containing in mM: 140 NaCl, 4 KCl, 1 MgCl2, 1.2 CaCl2), 10 HEPES, and 5 glucose (pH 7.3). The surface tissue temperature (34-35° C.) was measured via a thermistor (Warner Instruments) that was positioned next to the artery. Arteries were challenged with a PSS containing 0 Ca^2+/1 mM EGTA to measure the passive diameter. The arteriole diameter was measured using ImageJ as described above for the ex vivo vessels.

COc1ccc2c(c[n+](C)c3c4cc5c(cc4ccc23)OCO5)c1OC [chelerythrine chloride, 1,2-dimethoxy-12-methyl-[1,3]benzodioxolo[5,6-c]phenanthridin-12-ium;chloride]
arterial tone / diameter in vivo: did not alter tone or post-constriction dilation
